Values of other authors, collected in US7300927B2, “Method for treating or preventing Alzheimer's disease” (priority 1997, dated 2007).
At least one compound was matched to its structure with a doubt left.

Test system: rats
Conditions: cited from earlier work

Question: With `O=C(c1ccc2nccnc2c1)N1CCCCC1` [CX516] as the compound, how does the age-associated memory impairment read?
Answer: reversed age-associated memory impairment
